Paper PMC7125190, “Native/citrullinated LL37-specific T-cells help autoantibody production in Systemic Lupus Erythematosus” (Scientific Reports, 2020)

Test system: CD3+CD4+ T-cells
Assay: T-cell proliferation assay (BrdU incorporation of PBMC)
Assay type: cell-based, human
Details: SLE
Description: PBMCs were purified, from EDTA-treated blood, on Ficoll-Hypaque (Pharmacia Fine Chemicals, Uppsala, Sweden) were incubated (10^5 cells/well) in 96-well-flat-bottom-microplates (BD) in T cell- […]
penicillin, and 100 μg/mL streptomycin), with/without peptides. We performed assays on fresh cells, within 1-to-3 hours from collection, or on PBMCs frozen in 90% FCS-10%DMSO, whose viability we assessed by Trypan blue exclusion, at inverted microscope.
At day3 and 5, BrdU was added (1 μg/mL). BrdU-incorporation was detected by APC-labeled anti-BrdU antibody (BD Pharmingen), after surface staining by flow cytometry. Internal control for T-cell viability and proliferation was PHA treatment (2 μg/mL). SI for proliferation was calculated by dividing percent of BrdU-staining in the presence of each peptide used to stimulate cells by percent of BrdU-staining in the absence of peptide stimulation. SI for proliferation was considered positive when>3. This cut-off was obtained by calculating the mean+2DS [1.5 + 2 (0.6)] (of the stimulation indexes calculated as above) of the proliferation of HD.
Basal % of proliferation was set using, as reference, an isotype matched antibody staining (APC- […]
Assays were repeated twice with each patient. In rare cases in which background proliferation exceed antigen-specific proliferation the assay was repeated three times. […]

LLGDFFR(cit)KSKEKIGKEFKR(cit)IVQR(cit)IKDFLR(cit)NLVPR(cit)TES [cit-LL37, citrullinated LL37 (citrullinated at all five arginin positions)]
T-cell response higher with anti-DNA antibody positivity: but not to cit-LL37
